From patent publication US20230305022A1, “Biomarkers in Primary Biliary Cholangitis” (University of Newcastle upon Tyne, priority 2020, published 2023)
For at least one compound, name, drawing or mass did not settle the structure.

Columns and labels:
Ep-CAM = assay: Discovery serum proteomics (Olink), UDCA-treated vs treatment-naïve PBC patients; format: in vivo, human; settings: discovery phase
Method: UDCA-Treated PBC: These were PBC patients who had been taking UDCA at a therapeutic dose (13-15 mg/kg/day) for greater than 12 months. Clinical parameters, including serum biochemistry were available both pre-treatment and after 12 months of UDCA therapy. This allowed all UDCA-treated patients to be assigned to responder and non-responder groups using current standard criteria including Paris 1 (Alanine Transaminase (ALT)>2× upper limit of normal [ULN], Alkaline Phosphatase (ALP)>3×ULN, Bilirubin>1×ULN) (Corpechot et al., 2008), Paris 2 (ALP and ALT both >1.5×ULN)(Corpechot et al., 2011) and POISE (ALP <1.67×ULN and bilirubin <1×ULN) (Nevens et al., 2016). UK-PBC risk score 10-year predicted survival was also calculated for UDCA-treated patients after therapy. Patients taking fibrates and or OCA were not included in the current study. […]
Blood was collected under the approval of the Human Tissue Authority (HTA) by the UK-PBC tissue Bioresource with written informed patient consent obtained in accordance with research and ethics committee (REC) approval (14/NW/1146). […] 4 μl serum was analysed for 368 analytes from 4 distinct panels including Cardiovascular II &Ill, Inflammation and Oncology II (https://www.olink.com/). […] In turn, this was amplified by microfluidic quantitative PCR with normalised protein expression (NPX) data generated by a ΔΔct calculation method. […]

PBC patients = settings: 1st line UDCA; cited from earlier work
BDL mice = assay: Bile duct ligation (BDL) model: hepatocyte senescence and ductular DNA damage; format: in vivo, C57BL/6 mice; settings: for % p21+ hepatocytes in liver section (cellular senescence), FIG. 10: murine cholestasis model, vs untreated cholestatic animals
[1] = system: patients with an unsatisfactory response to UDCA; settings: UDCA non-responders; cited from earlier work
[2] = BDL mice, drug in diet (OCA 0.03% w/w prophylactic; UDCA 0.5% w/w), vs BDL

SMILES | effect of UDCA treatment on serum EpCAM (Ep-CAM) | further proportion of PBC patients partially treated (PBC patients) | proportion of PBC patients fully treated (PBC patients) | hepatocyte senescence detected by p21 staining (BDL mice; [2]) | ductular DNA damage (γH2Ax) (BDL mice; [2]) | % p21+ hepatocytes in liver section (cellular senescence), FIG. 10 (BDL mice) | efficacy as second line therapy [1]
C[C@H](CCC(=O)O)[C@H]1CC[C@H]2[C@@H]3[C@@H](O)C[C@@H]4C[C@H](O)CC[C@]4(C)[C@H]3CC[C@]12C [UDCA, Ursodeoxycholic acid] | normalised | ~35% | approximately 25% | comparable |  |  | 
CC[C@H]1[C@@H](O)[C@@H]2[C@H](CC[C@]3(C)[C@@H]([C@H](C)CCC(=O)O)CC[C@@H]23)[C@@]2(C)CC[C@@H](O)C[C@@H]12 [OCA, 6α-ethyl-chenodeoxycholic acid] |  |  |  | attenuated | attenuated | significantly reduced | effective
CC(C)(Oc1ccc(CCNC(=O)c2ccc(Cl)cc2)cc1)C(=O)O [bezafibrate, Bezafibrate] |  |  |  |  |  | higher levels of senescence | 
